The record followed here is patent publication US20240287202A1 (XYPHOS BIOSCIENCES, published 2024).

Chains of the proteins cited; added tags and fusions are not shown. Lines headed by an entry give the natural chain unless they say otherwise; changes in a name come on top. A line that says so, or that is headed by a name, gives the form on record, which may keep a tag or linker.
Fc-wtNKG2D (wild-type NKG2D ectodomain fused to the C-terminus of human IgG1 Fc) (P26718, form named): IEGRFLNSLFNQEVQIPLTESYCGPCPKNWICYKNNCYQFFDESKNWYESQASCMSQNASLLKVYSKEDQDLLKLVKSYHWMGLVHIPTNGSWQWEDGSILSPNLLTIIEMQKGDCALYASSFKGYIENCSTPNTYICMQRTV
UniProt Q6H3X3: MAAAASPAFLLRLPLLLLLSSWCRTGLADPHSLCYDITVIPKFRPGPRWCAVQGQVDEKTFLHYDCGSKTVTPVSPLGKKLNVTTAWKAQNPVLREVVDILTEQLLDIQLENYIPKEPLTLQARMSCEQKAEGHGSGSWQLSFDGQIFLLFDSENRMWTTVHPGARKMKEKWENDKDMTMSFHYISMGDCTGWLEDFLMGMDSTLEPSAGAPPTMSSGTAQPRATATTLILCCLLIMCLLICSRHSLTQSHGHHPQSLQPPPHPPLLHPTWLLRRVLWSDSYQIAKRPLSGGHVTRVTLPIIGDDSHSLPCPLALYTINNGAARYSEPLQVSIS

No constants are given. Whether binding was seen depends on the method and setting. Binding can be weak; no strength is given.

The test addresses Fc-wtNKG2D (wild-type NKG2D ectodomain fused to the C-terminus of human IgG1 Fc) (human) (UniProt P26718). The test can be described thus: Octet BLI; Fc-wtNKG2D captured on anti-human IgG Fc (AHC) tips, dilution series of His-tagged monomeric ligand. Background: Biolayer interferometry detects binding as a change in optical thickness at a sensor tip.

As for “A1-A2 domain of human ULBP5 with C-terminal 6x-His tag (monomer) (from UniProt Q6H3X3) (ligand)”, the binding entry was “binds”.
